Source: PubChem BioAssay AID504467 (National Center for Advancing Translational Sciences (NCATS), 2011)
Out of some 330,000 compounds screened, about 7,700 (2.3%) were called active. Inconclusive means that the source gave no clear call. Such entries were picked first, then a sample of the others. The call rests on the fitted dose curve; in most records, active means well fitted inhibition curve with a large enough effect; inconclusive means small, poorly fitted or top-dose-only effect, or effect the other way; inactive means flat fitted curve, though single readings scatter. A potency beside an inconclusive call is a rough fit, not a confirmed value.
Potency means the concentration at half of the fitted maximal effect.

Assay: qHTS screen for small molecules that inhibit ELG1-dependent DNA repair in human embryonic kidney (HEK293T) cells expressing luciferase-tagged ELG1; further: nearly all actives have a fitted effect of over 55% in size
Conditions: HEK293T ELG1-luciferase reporter, luminescence, 16 h, DNA damage induced by 5-fluorouridine; series mostly up to 46.1 µM
How it was run: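 In this reporter screen, reduction of luminescence relative to DMSO vehicle indicated activity. Compounds and 5-fluorouridine were added together to 2,000 cells per well, incubated for 16 hr at 37 °C, then developed with ONE-Glo.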
In the case of `CCCCN(Cc1ccccc1)S(=O)(=O)c1c(N)n(C)c(=O)n(C)c1=O`, the Potency is reported as “inactive”.
With `COc1cccc(C(=O)N/N=C(\C)c2ccc(NC(=O)Cc3ccccc3)cc2)c1OC` the Potency was inconclusive: 20.6 µM [activator, partial curve].
With `FC(F)(F)c1nc2ccccc2nc1N/N=C/c1ccc(Cl)cc1` the Potency was “inactive”.
In the case of `Cc1ccnc(NC(=O)Nc2cccc(F)c2)c1`, the Potency is reported as inconclusive: 1.16 µM [activator, partial curve].
For `COC(=O)c1ccc(NC(=S)NCCc2ccccc2)cc1`, the Potency was “inactive”.
With `c1ccc(-c2nc(NCc3cccnc3)c3oc4ccccc4c3n2)cc1` the Potency was active: 23.1 µM.
For `CN(C)c1nc(NCc2ccccc2)nc(N/N=C/c2cccc(Br)c2)n1`, the Potency was inconclusive: 16.4 µM [inhibitor, single point].
With `CC(=O)Nc1ccc(N2CCC(C)CC2)c([N+](=O)[O-])c1` the Potency was inconclusive: 20.6 µM [activator, single point].
With `O=C1c2cccc3c(O)ccc(c23)C(=O)N1c1ccc(Cl)cc1` the Potency was inconclusive: 6.51 µM [activator, partial curve].
With `N#CC1=C(N)C(C#N)(C#N)[C@H](c2c(F)cccc2F)[C@H]2CC3(CC=C12)OCCO3` the Potency was inconclusive: 31.6 µM [inhibitor, single point].
In the case of `O=C(Nc1ccccc1)N(CCN1CCOCC1)Cc1ccccc1F`, the Potency is reported as inconclusive: 13 µM [activator, partial curve].
In the case of `Cc1ccc(C)c(OCc2cc(C(=O)N3CCN(C(=O)c4ccco4)CC3)no2)c1`, the Potency is reported as inconclusive: 11.6 µM [activator, partial curve].
For `O=C(COc1ccccc1Cl)Nc1cc(NC(=O)COc2ccccc2Cl)cc(C(=O)O)c1`, the Potency was inconclusive: 18.3 µM [activator, partial curve].
For `COc1ccc(CNC(=O)c2sc3nc4c(c(C(F)(F)F)c3c2N)CCC4)cc1`, the Potency was inconclusive: 29.1 µM [inhibitor, single point].
In the case of `COc1ccc(CCNC(=O)Cn2c(=O)n(CC3CCCO3)c(=O)c3ccccc32)cc1OC` (configuration not stated), the Potency is reported as inconclusive: 32.6 µM [inhibitor, partial curve, poor fit].
In the case of `CC(C)(C)OC(=O)NCCCCCNC(=O)c1[nH]cnc1C(=O)Nc1cccc(Cl)c1`, the Potency is reported as inconclusive: 10.3 µM [inhibitor, partial curve, poor fit].
In the case of `COc1ccc(-c2nc(SC)n(C)c(=O)c2C#N)cc1OC`, the Potency is reported as inconclusive: 20.6 µM [inhibitor, single point].
In the case of `O=C(CCN1C(=O)C2CCCCC2C1=O)Nc1nc2ccc(F)cc2s1` (configuration not stated), the Potency is reported as inconclusive: 1.46 µM [activator, full curve].
With `CCOc1cc(C(=O)OC(C)C(=O)Nc2ncc(Cl)cc2Cl)ccc1OCC(=O)N1CCOCC1` (configuration not stated) the Potency was inconclusive: 23.1 µM [inhibitor, partial curve, poor fit].
With `O=C(NC(=S)NCC1CCCO1)c1cccs1` (configuration not stated) the Potency was inconclusive: 18.4 µM [activator, single point].
In the case of `CCC[C@@H](CN[C@@H](CNC)C(C)C)NCCCCc1ccccc1`, the Potency is reported as inconclusive: 8.2 µM [activator, partial curve, poor fit].
In the case of `CC1(C)Oc2ccc3ccc(=O)oc3c2C(N2CCCCC2)C1O` (configuration not stated), the Potency is reported as “inactive”.
With `Cc1cccc(NC(=O)CSc2nc3nc4c(cc3c(=O)n2-c2ccccc2)CCCC4)c1` the Potency was active: 14.6 µM.
For `COc1ccc2c(c1OC)C(=O)N1c3ccccc3C(=O)N(c3ccc(F)cc3)C21` (configuration not stated), the Potency was inconclusive: 3.66 µM [inhibitor, full curve].
For `CN1C(=O)c2ccc(C(=O)Nc3ccc4c(c3)OCO4)cc2C1=O`, the Potency was inconclusive: 18.3 µM [activator, partial curve].
In the case of `Cc1cc(=O)oc2cc(OC(C)C)ccc12`, the Potency is reported as inconclusive: 16.4 µM [activator, single point].
In the case of `COCCS(=O)(=O)N(Cc1ccc(Br)cc1)[C@@H](C)C(=O)OC`, the Potency is reported as “inactive”.
In the case of `Cc1ccc(C(c2nnnn2CC2CCCO2)N2CCN(c3cccc(C)c3C)CC2)cc1` (configuration not stated), the Potency is reported as inconclusive: 2.06 µM [inhibitor, partial curve].
With `Cn1cc(CN2CCCC(C(=O)Nc3cccc(-n4cccn4)c3)C2)cn1` (configuration not stated) the Potency was “inactive”.
With `O=C(CN1C(=O)C(=O)c2ccccc21)NCCc1ccccc1` the Potency was “inactive”.
With `O=C1c2ccccc2C(Nc2ccc(S(=O)(=O)N3CCCCC3)cc2)N1c1ccccn1` (configuration not stated) the Potency was inconclusive: 25.9 µM [inhibitor, partial curve].
In the case of `Cc1c(Cl)cccc1NC(=S)Nc1ccccn1`, the Potency is reported as “inactive”.
In the case of `CCOc1cc(C(=O)N2CCN(c3ccccn3)CC2)cc(OCC)c1OCC`, the Potency is reported as inconclusive: 22.4 µM [inhibitor, single point].
With `Cc1cc2nc(C)c3c(n2n1)CCC3` the Potency was “inactive”.
With `O=C(CSc1nc2ccccc2s1)N/N=C/c1ccccc1C(=O)O` the Potency was inconclusive: 13 µM [activator, partial curve].
For `Cc1c(C#N)c(N)nc2c3c(sc12)NC(=O)CC3c1ccc(F)cc1` (configuration not stated), the Potency was inconclusive: 11.6 µM [activator, partial curve, poor fit].
With `O=C(OCCN1C(=O)c2cccc3c(N4CCOCC4)ccc(c23)C1=O)c1ccccc1Cl` the Potency was active: 11.6 µM.
In the case of `CN(C)c1cc(N/N=C/c2ccc(Cl)cc2)nc(N(C)C)n1`, the Potency is reported as inconclusive: 29.1 µM [inhibitor, single point].
For `COc1ccc(C(C[N+](=O)[O-])c2c(-c3ccccc3)cc3ccccn23)c(OC)c1` (configuration not stated), the Potency was inconclusive: 14.6 µM [activator, partial curve].
For `O=C(O)CCCC(=O)Nc1ccn(-c2ccccc2)n1`, the Potency was “inactive”.
With `COC(=O)c1ccc(NC(=O)C(=O)c2cccn2C)cc1` the Potency was inconclusive: 2.31 µM [activator, partial curve].
With `Cn1nnnc1SCC(=O)Nc1ccc(Oc2ccc(Cl)cc2)cc1` the Potency was “inactive”.
With `Cc1ccc(CSCC(=O)Nc2ccccc2F)cc1` the Potency was inconclusive: 14.6 µM [activator, partial curve].
With `CCCOc1ccccc1/C=C(\C#N)C(=O)Nc1cccnc1` the Potency was inconclusive: 23.1 µM [activator, partial curve].
For `Cc1ccc(C)c(NC(=O)COC(=O)c2cc(=O)c3ccccc3o2)c1`, the Potency was “inactive”.
For `CC(C)(C)NC(=O)C(=O)NCCC1=CCCCC1`, the Potency was inconclusive: 23.1 µM [activator, single point].
For `COc1ccc2oc(=N)c(C(=O)Nc3ccccc3Cl)cc2c1`, the Potency was inconclusive: 2.91 µM [activator, partial curve].
In the case of `C=C(C)Cn1c(C)cc(C)c(S(=O)(=O)c2cccc(C)c2)c1=O`, the Potency is reported as inconclusive: 16.4 µM [inhibitor, partial curve, poor fit].
In the case of `CC1(C)CCc2nc(SCc3ccccc3)c(C#N)cc2C1`, the Potency is reported as inconclusive: 18.4 µM [activator, single point].
For `COc1ccccc1/C=N/n1nnnc1N`, the Potency was inconclusive: 25.9 µM [activator, single point].
In the case of `Cc1cccc(-n2ncc3c(N4CCC5(CC4)OCCO5)ncnc32)c1`, the Potency is reported as inconclusive: 2.59 µM [activator, full curve].
With `O=C(NC(C(=O)c1ccccc1)n1c(=O)cc[nH]c1=S)c1ccccc1` (configuration not stated) the Potency was inconclusive: 18.4 µM [activator, single point].
For `Cc1ccc(S(=O)(=O)NCC(=O)OCC(=O)N(C)C2CCCCC2)cc1`, the Potency was inconclusive: 7.08 µM [activator, partial curve, poor fit].
For `Cc1[nH]c2ccccc2c1SCc1nnc(SCc2ccccc2)n1C`, the Potency was “inactive”.
With `CC(C)CNC(=O)C(=O)Nc1ccc2c(c1)N(S(=O)(=O)c1cccs1)CCC2` the Potency was inconclusive: 29.1 µM [inhibitor, single point].
For `Cc1ccc2c(c1)nnn2C1CCN(S(=O)(=O)c2ccc3ccccc3c2)CC1`, the Potency was inconclusive: 25.9 µM [inhibitor, single point].
With `COCCn1c(=NC(=O)CCS(=O)(=O)c2ccccc2)sc2cc(F)ccc21` the Potency was “inactive”.
With `O=S(=O)(c1ccc2ccccc2c1)N1CCN(S(=O)(=O)c2c(F)cccc2F)CC1` the Potency was inconclusive: 11.6 µM [activator, partial curve].
In the case of `COc1cccc(C(=O)C2CCCN(C(=O)c3cccc(C#CC(C)(C)O)c3)C2)c1` (configuration not stated), the Potency is reported as active: 16.4 µM.
With `CC(=O)N(C)c1ccc(NC(=S)NC(=O)/C=C/c2ccco2)cc1` the Potency was inconclusive: 16.4 µM [activator, partial curve].
With `CC12CC(c3ccccc3O1)C(/C(N)=N/NC(=O)c1ccc(F)cc1)C(=O)N2` (configuration not stated) the Potency was inconclusive: 29.1 µM [inhibitor, single point].
With `COC(=O)c1ccc(Sc2ccc(C)cc2)c(N)c1` the Potency was inconclusive: 16.4 µM [activator, single point].
With `O=C(NN1S(=O)(=O)c2ccccc2S1(=O)=O)c1ccc(Br)cc1` the Potency was “inactive”.
With `CCN(CC)S(=O)(=O)c1ccc(Cl)c(C(=O)NCc2ccccc2Cl)c1` the Potency was inconclusive: 25.9 µM [inhibitor, partial curve, poor fit].
With `CCOC(=O)c1c(-c2ccc(C)o2)csc1NC(=O)CSc1nnnn1-c1ccccc1` the Potency was inconclusive: 1.26 µM [activator, single point].
For `O=C(Nc1nc(-c2ccccc2)cs1)c1ccc2c(c1)S(=O)(=O)c1ccccc1C2=O`, the Potency was inconclusive: 7.31 µM [inhibitor, partial curve, poor fit].
For `O=C(c1cccc(F)c1)N1CCN(c2cccc(Cl)c2)CC1`, the Potency was inconclusive: 20.6 µM [inhibitor, single point].
